Some of these results come from one statement about several compounds together.
What was measured:
Type in all cases: in vivo
[1] = tested on: Boll Weevil (Anthonomus grandis); test: Activity against boll weevil (II.8); settings: at 2500 ppm; eggs sprayed; 3 to 5 days
[2] = tested on: Mediterranean Fruiffly (Ceratitis capitata); test: Activity against Mediterranean fruitfly (II.9); settings: at 2500 ppm; eggs sprayed; 6 days
[3] = tested on: Two-Spotted Spider Mite (tetranychus urticae, OP-Resistant Strain); test: Activity against two-spotted spider mite, OP-resistant strain (II.6); settings: at 300 ppm; after 5 days; lima bean plant dip

Compound: Cc1cc(-c2ccc(OC(F)(F)F)cc2)ccc1S(=O)(=O)NCc1ccnc2ccccc12 [Compound B68]
- mortality in comparison with untreated controls [1]: at least 75%

Compound: O=S(=O)(NCc1ccnc2ccccc12)c1ccc(-c2ccc(C(F)(F)F)cc2Cl)cc1F [Compound B85]
- mortality [2]: at least 75%

Compound: O=S(=O)(NCc1ccnc2ccccc12)c1ccc(-c2ccc(Cl)cc2Cl)cc1Cl [Compound B116]
- mortality in comparison with untreated controls [1]: at least 75%

Compound: Cc1cc(S(=O)(=O)NCc2ccnc3ccccc23)ccc1-c1ccc(OC(F)(F)F)cc1 [Compound B7]
- mortality in comparison with untreated controls [3]: at least 75%

Compound: O=S(=O)(NCc1ccnc2ccccc12)c1ccc(-c2ccc(Cl)cc2Cl)cc1F [Compound B117]
- mortality in comparison with untreated controls [1]: at least 75%

Compound: Cc1cc(S(=O)(=O)NCc2ccnc3ccccc23)ccc1-c1ccc(Cl)cc1Cl [Compound B1]
- mortality in comparison with untreated controls [3]: at least 75%

Compound: Cc1cc(-c2ccc(Cl)cc2C(F)(F)F)ccc1S(=O)(=O)NCc1ccnc2ccccc12 [Compound B98]
- mortality [2]: at least 75%
